# Measurements as given in PubChem BioAssay AID2517 (National Center for Advancing Translational Sciences (NCATS), 2010).
# Chains of the proteins cited; added tags and fusions are not shown.
# UniProt P27695, whole entry, looked up: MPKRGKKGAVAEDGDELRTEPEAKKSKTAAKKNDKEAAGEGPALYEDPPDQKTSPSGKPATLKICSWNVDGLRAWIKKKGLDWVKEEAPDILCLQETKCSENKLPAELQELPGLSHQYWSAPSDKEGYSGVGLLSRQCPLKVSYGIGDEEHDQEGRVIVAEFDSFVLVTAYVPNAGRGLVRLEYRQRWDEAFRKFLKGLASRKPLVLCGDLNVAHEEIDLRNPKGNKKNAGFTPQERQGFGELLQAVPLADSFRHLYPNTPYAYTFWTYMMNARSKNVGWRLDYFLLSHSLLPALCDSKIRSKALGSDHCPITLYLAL
# About 1,200 (0.34%) of roughly 350,000 compounds were called active. Inconclusive results, whose numbers are uncertain, are shown with a selection of clear calls. The call rests on the fitted dose curve; in most records, active means well fitted inhibition curve with a large enough effect; inconclusive means small, poorly fitted or top-dose-only effect; inactive means no such curve, though single readings can be large or run the other way. Potencies of inconclusive entries are doubtful fits and often do not repeat.
# Target: DNA repair nuclease/redox regulator APEX1 (Homo sapiens) (UniProt P27695)
# Test: qHTS Assay for Inhibitors of the Human Apurinic/apyrimidinic Endonuclease 1 (APE1); further: nearly all actives have a fitted effect of over 55% in size;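 on activity change, negative = inhibition: plate controls were vehicle for no effect and reference inhibitor for full effect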
# Details: recombinant APE1, TAMRA/BHQ-2 abasic DNA cleavage fluorescence; activity change, negative = inhibition: at 65.8 µM (top of the series)
# Outline: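 Step 1: APE1 (0.75 nM) with compound, 15 min RT. Step 2: add 50 nM fluorophore/quencher THF duplex. Step 3: three fluorescence reads 60 s apart (525/598 nm); read 3 minus read 1 = reaction progress.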
# Potency means the concentration at half of the fitted maximal effect.
Compound,Potency,"activity change, negative = inhibition"
Cc1cc(C)c(S(=O)(=O)Nc2ccc(O)c(Sc3ncn[nH]3)c2)c(C)c1,"inconclusive: 17.8 µM [inhibitor, single point]",–
O=C(Cc1cccs1)OCC(=O)c1ccco1,active: 28.2 µM,–
O=C(NCc1ccco1)c1ccc(CS(=O)(=O)Cc2ccc(Cl)cc2)o1,"inconclusive: 17.8 µM [inhibitor, single point]",–
Cn1ncc(Cl)c1C(=O)N1CCN(c2ccccc2)CC1,–,inactive: 15.7%
Cc1ccc(-n2cccc2/C=C2\C(=N)N3N=C(c4ccco4)SC3=NC2=O)cc1,active: 10 µM,–
CC1=CCC(C(=O)O)C(C(=O)Nc2ccc(-c3nc4ccc(C)cc4s3)cc2)C1 (stereo not drawn),"inconclusive: 25.1 µM [inhibitor, single point]",–
O=C(CC1C(=O)N(c2ccc(Cl)cc2)C(=S)N1CCc1ccncc1)Nc1ccc(F)cc1 (stereo not drawn),"inconclusive: 44.7 µM [inhibitor, single point]",–
Cc1ccc(/C=C/C2=CC3(C)CC2(C)C(c2ccc(C)cc2)CC3=O)cc1 (stereo not drawn),"inconclusive: 7.94 µM [inhibitor, single point]",–
COc1ccc(-c2[nH]ncc2C=O)cc1,"inconclusive: 1.78 µM [inhibitor, full curve, poor fit]",–
CC(=O)Nc1ccc(NC(=O)CSc2nnc(NC(=O)C3CC(=O)N(c4ccc(F)cc4)C3)s2)cc1 (stereo not drawn),–,inactive: 42%
Cc1ccc(-c2cc(=O)c3ccccc3[nH]2)cc1,"inconclusive: 3.98 µM [inhibitor, single point]",–
NC(=O)c1c(NC(=O)CSc2nnc(-c3ccco3)n2-c2ccccc2)sc2c1CCC2,"inconclusive: 35.5 µM [inhibitor, single point]",–
CC(=O)Nc1ccc(S(=O)(=O)NCCc2ccc(F)cc2)cc1,"inconclusive: 0.0794 µM [inhibitor, full curve]",–
COc1cc(/C=N/NC(=O)c2cccc(S(=O)(=O)N3CCCC3)c2)ccc1O,–,inactive: 15.3%
CCCN(C(=O)c1cc2c(s1)CCC2)c1c(N)n(Cc2ccccc2)c(=O)[nH]c1=O,"inconclusive: 28.2 µM [inhibitor, partial curve]",–
CC(=O)c1ccc(NC(=O)CSc2ccc3nnc(-c4ccccn4)n3n2)cc1,–,inactive: 6.04%
Nc1cc([N+](=O)[O-])ccc1N1C(=O)CCCC1=O,"inconclusive: 37.7 µM [inhibitor, single point]",–
O=C(Nc1ccccc1)Nc1ccc(F)c([N+](=O)[O-])c1,"inconclusive: 1.26 µM [inhibitor, full curve, poor fit]",–
Cn1c2ccccc2c2nnc(NN)nc21,"inconclusive: 3.55 µM [inhibitor, full curve]",–
CC(C)(C)OC(=O)C[C@@H]1C/C=C\C[C@@H](CC(=O)NCCO)C(=O)N[C@H](Cc2c[nH]c3ccccc23)COC1=O,active: 15 µM,–
Cc1ccc(C2CN(C)C3(C(=O)Nc4ccccc43)C23COc2ccccc2C3=O)cc1 (stereo not drawn),"inconclusive: 44.7 µM [inhibitor, single point]",–
O=C(COC(=O)/C=C/c1ccc(OC(F)F)cc1)NCCN1C(=O)CSC1=O,"inconclusive: 2.82 µM [inhibitor, partial curve, poor fit]",–
COc1ccc(-n2c(=O)c(CCc3ccccc3)nc3cnc(N(C)C)nc32)cc1,–,inactive: 1.71%

Compound,Potency,"activity change, negative = inhibition"
CCNc1nc(NCC)n2c(SCC(=O)Nc3ccc(OC)c(OC)c3)nnc2n1,"inconclusive: 23.8 µM [inhibitor, single point]",–
CN(C)S(=O)(=O)c1ccc(Cl)c(NC(=O)COC(=O)CCC2CCCCC2)c1,"inconclusive: 29.9 µM [inhibitor, single point]",–
CN(C)C(=O)c1cn(CCC#N)nc1-c1ccc2ccccc2c1,–,inactive: 10.2%
CCOc1ccc(N2C(=O)Nc3ccccc3C2(O)C(=O)NCc2ccc3c(c2)OCO3)cc1 (stereo not drawn),"inconclusive: 44.7 µM [inhibitor, single point]",–
COC(=O)c1cccc(NC(=O)/C=C/c2ccc([N+](=O)[O-])cc2)c1,–,inactive: 14.3%
Cc1cc2n(n1)C(c1ccccc1Cl)Nc1ccccc1-2 (stereo not drawn),–,inactive: 8.02%
O=C1c2ccccc2C(=O)N1CCCc1nc2ccccc2c(=O)n1Cc1ccco1,"inconclusive: 6.31 µM [inhibitor, partial curve]",–
N#CC12CCCCC1CC1CCCCC1(C#N)N2N (stereo not drawn),"inconclusive: 44.7 µM [inhibitor, single point]",–
COc1ccccc1N1CCN(c2nnc(-c3ccc(F)cc3)c3ccccc23)CC1,–,inactive: -1.92%
Cc1ccc(C2(COC(=O)C(C)C)CO2)c(OC(=O)C(C)C)c1 (stereo not drawn),"inconclusive: 0.891 µM [inhibitor, partial curve, poor fit]",–
COc1ccc(NC(=O)CN(C)C(=O)c2cccc(-n3cccc3)c2)cc1,active: 2.38 µM,–
Nc1c(C(=O)Nc2ccc(S(=O)(=O)N3CCCC3)cc2)sc2nc3ccc(OC(F)(F)F)cc3cc12,"inconclusive: 35.5 µM [inhibitor, single point]",–
COc1ccnc(Oc2ccccc2)c1C(=O)N/C=N/OCc1ccc(F)cc1Cl,"inconclusive: 5.62 µM [inhibitor, partial curve, poor fit]",–
Cc1ccc2c(c1)C(C)(C)[C@]1(C)NC(=O)CCN21,"inconclusive: 0.891 µM [inhibitor, partial curve]",–
CCOC(=O)CN1N=C(/C=C/c2ccc(C(C)C)cc2)CCC1=O,"inconclusive: 35.5 µM [inhibitor, partial curve, poor fit]",–
COc1cccc(CNc2ccc3nc(-c4ccc(N)cc4)c(OC)n3n2)c1,inactive,–
O=C(CSc1nnc(-c2ccc(Cl)cc2)n1-c1ccccc1)N/N=C/c1ccccc1C(=O)O,"inconclusive: 39.8 µM [inhibitor, single point]",–
CCN(CC(=O)Nc1c(F)cccc1F)C(=O)c1ccc(=O)n(Cc2ccccc2)n1,–,inactive: 15.4%
CCOc1ccc2nc(NC(=O)CCC(=O)c3cccs3)sc2c1,"inconclusive: 31.6 µM [inhibitor, single point]",–
COCc1cc(C)nc(N/N=C/c2ccc(-c3ccc(C(=O)O)c(Cl)c3)o2)c1C#N,"inconclusive: 25.1 µM [inhibitor, partial curve]",–
COc1ccc(/C=N/NC(=O)c2nn(-c3ccccc3)c(=O)c3c(N)scc23)cc1,"inconclusive: 7.08 µM [inhibitor, full curve]",–
Cc1nc(N)[nH]c(=O)c1CCC(=O)OCC(C)C,"inconclusive: 0.891 µM [inhibitor, full curve]",–
C[n+]1cc[nH]c1SCC(=O)c1ccc(Cl)cc1,–,inactive: -0.0875%

Compound,Potency,"activity change, negative = inhibition"
O=C(COC(=O)c1ccc([N+](=O)[O-])s1)NC(=O)NCc1ccccc1,"inconclusive: 28.2 µM [inhibitor, single point]",–
CN1CCc2cc3c(c4c2[C@H]1[C@H](O)c1ccccc1-4)OCO3,"inconclusive: 8.91 µM [inhibitor, partial curve]",–
Cc1sc2ncnc(SCC#N)c2c1C,"inconclusive: 17.8 µM [inhibitor, single point]",–
COc1cc([N+](=O)[O-])cc(/C=N/NC(=O)Cn2nc(C)cc2C)c1O,–,inactive: 1.65%
Cc1ccc(-c2nn3c(C)nnc3s2)cc1NC(=O)c1ccc(-c2cccc(Cl)c2)o1,–,inactive: 9.42%
CCOC(=O)N1CCC(N2C(=O)c3ccccc3C2Nc2ccc(S(=O)(=O)N(CC)CC)cc2)CC1 (stereo not drawn),"inconclusive: 0.251 µM [inhibitor, full curve, poor fit]",–
Fc1ccc(C(c2ccc(F)cc2)N2CCN(C/C=C\c3ccccc3)CC2)cc1,inactive,–
Cc1cc(SCC(=O)N/N=C/c2ccc(O)c(O)c2O)c(C)cc1Br,"inconclusive: 6.31 µM [inhibitor, partial curve]",–
N#CCCN(C(=O)COC(=O)c1ccc2c(=O)n3c(nc2c1)CCC3)c1ccccc1,"inconclusive: 39.8 µM [inhibitor, single point]",–
Cc1c(C(=O)Nc2ccc(OC(F)(F)F)cc2)sc2nc3n(c(=O)c12)CCC3,"inconclusive: 3.16 µM [inhibitor, full curve]",–
CCOc1cc(C2NC(=O)NC(C)=C2C(=O)OCc2ccccc2)ccc1O (stereo not drawn),–,inactive: -2.17%
CCN(CC)S(=O)(=O)c1ccc(C(=O)OCC(=O)NCc2ccco2)cc1,"inconclusive: 44.7 µM [inhibitor, single point]",–
CC(C)CCC(C)NC(=O)c1ccc2nccnc2c1 (stereo not drawn),"inconclusive: 5.01 µM [inhibitor, single point]",–
COc1ccc(OCC2CN3C(CCC(C)C3c3ccc(Br)cc3)C(=O)O2)cc1 (stereo not drawn),"inconclusive: 4.47 µM [inhibitor, single point]",–
CC(/C=C/C1[C@H](C)C[C@H](O[C@@H]2O[C@H](CO)[C@@H](O)[C@H](O)[C@H]2O)CC1(C)C)O[C@H]1O[C@H](CO)[C@@H](O)[C@H](O)[C@H]1O (stereo partly drawn),–,inactive: 2.73%
O=C(COC(=O)CSc1ccc2ccccc2c1)NCc1ccc2c(c1)OCO2,"inconclusive: 0.141 µM [inhibitor, full curve]",–
CC(=O)/C(=N\Nc1ccc(Cl)cc1)Sc1nnc(-c2ccccc2)n1-c1ccccc1,–,inactive: -1.48%
COc1cccc(OCC(=O)NNC(=O)CCc2ccccc2)c1,–,inactive: 8.23%
O=C(CN1C(=O)NC2(CCCCC2)C1=O)Nc1ccc(F)cc1,"inconclusive: 0.794 µM [inhibitor, full curve, poor fit]",–
CCCCCCCCC1OC1CCCCCCCC(=O)O (stereo not drawn),–,inactive: -1.66%
O=[N+]([O-])c1cc(Cc2ccccc2)cc(C=Nc2ccc(N3CCOCC3)cc2)c1O,–,inactive: -5.56%
CCCCOc1ccc(CSCCNC(=S)Nc2ccccc2)cc1,"inconclusive: 0.355 µM [inhibitor, full curve, poor fit]",–

# Shown with tabs: part of the list above
Compound	Potency	activity change, negative = inhibition
O=C(CC1C(=O)N(c2ccc(Cl)cc2)C(=S)N1CCc1ccncc1)Nc1ccc(F)cc1 (stereo not drawn)	inconclusive: 44.7 µM [inhibitor, single point]	–
Cc1ccc(/C=C/C2=CC3(C)CC2(C)C(c2ccc(C)cc2)CC3=O)cc1 (stereo not drawn)	inconclusive: 7.94 µM [inhibitor, single point]	–
COc1ccc(-c2[nH]ncc2C=O)cc1	inconclusive: 1.78 µM [inhibitor, full curve, poor fit]	–
